Laboratory results from patent US7208450B2, “Pesticidal (dihalopropenyl) phenylalkyl substituted benzoxazole and benzothiazole derivatives” (Bayer CropScience AG, priority 2003, dated 2007).
Some of these results come from one statement about several compounds together.

test system: tobacco budworm; test: foliar treated test against tobacco budworm on chick pea plants; assay type: in vivo, Heliothis virescens; settings: summary of Table 4
Experimental: Certain compounds of formula I were tested against tobacco budworm on plant foliage. The foliar treated test against tobacco budworm were conducted in the following manner:
Nine-to-ten day-old chick pea plants (Cicer arietinum) were sprayed at 15 psi to runoff on both upper and lower leaf surfaces with solutions of test compound to provide application rates as high as 1000 ppm of test chemical. The solvent used to prepare the solutions of test compound was 10% acetone or methanol (v/v) and 0.1% of the surfactant octylphenoxypolyethoxyethanol in distilled water. Four replicates, each containing one chick pea plant, for each rate of application of test compound were sprayed. The treated plants were transferred to a hood where they were kept until the spray had dried.
The four chick pea plants for each replicate treated with test compound as described above were removed from their pots by cutting the stems just above the soil line. The excised leaves and stems from the four plants in each replicate were placed in individual 237 mL (8-ounce) paper cups, which contained a moistened filter paper. Five second-instar tobacco budworm (7 days old) were counted into each cup, taking care not to cause injury. An opaque plastic lid was placed on each cup, which was then held in a growth chamber for a 96 hour exposure period at 25° C. 50% relative humidity and photo-period of 12 hours light and 12 hours dark. At the end of the 96 hour exposure period the cups were opened, and the numbers of dead, moribund, and live insects were counted. Using the insect counts, the efficacy of the test compound was expressed in percent control. Percent control is derived from the total number of dead insects (TD) plus the total number of moribund insects (TM) as compared to the total number of insects (TI) in the test:
The condition of the test plants was also observed for phytotoxicity and for reduction of feeding damage as compared to an untreated control.

Row | SMILES | activity in controlling tobacco budworm (in words)
1 | FC(F)(F)c1nc2ccc(OCCCOc3c(Cl)cc(OCC=C(Cl)Cl)cc3Cl)cc2o1 [Compound 3, 5-(3,3-dichloroprop-2-enyloxy)-1,3dichloro-2-{3-[2-(trifluoromethyl)benzoxazol-6-yloxy]propoxy}benzene] | active
2 | FC(F)(F)c1nc2ccc(OCCCCOc3c(Cl)cc(OCC=C(Cl)Cl)cc3Cl)cc2o1 [Compound 6, 5-(3,3-dichloroprop-2-enyloxy)-1,3-dichloro-2-{4-[2-(trifluoromethyl)benzoxazol-6-yloxy]butoxy}benzene] | active
3 | Cc1nc2cc(OCCCCCOc3c(Cl)cc(OCC=C(Cl)Cl)cc3Cl)ccc2s1 [Compound 12, 5-(3,3-dichloroprop-2-enyloxy)-1,3-dichloro-2-[5-(2-methylbenzothiazol-5-yloxy)pentyloxy]benzene] | active
